Data as given in PubChem BioAssay AID1259254 (NCATS, 2017).
This is a random part of about 59,000 deposited reagents. About 1,550 of them (2.6%) count as active. 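G2 share is only a proxy for re-replication; each gene was hit by three separate siRNAs, and active genes were retested.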 Raw values vary from plate to plate and are shown uncorrected. Reagents against one gene are numbered here. Not stated in the record: the amount of reagent.

Purpose: 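Finding genes that stop cells copying their DNA twice in one cycle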 (primary screen)
Cells: human HCT116 colorectal cancer cells
Reagents: single siRNA against human genes
Timing: 3 days
Measured: 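Imaged Hoechst DNA stain sorts each cell into a cycle phase by DNA amount; per plate, G2 fraction set to 0% for non-targeting and 100% for GMNN siRNA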
Reading the numbers: G2 robust z-score and G2 cells, % of GMNN control: higher = more G2 cells, more excess DNA replication; raw share of cells in G2: higher = larger share of cells with G2 DNA content
Active means: 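An siRNA counts as active if its G2 robust z-score lies at least 5 MADs above the screen median; here such calls match roughly 38% of GMNN control or more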

target | reagent | G2 robust z-score | G2 cells, % of GMNN control | raw share of cells in G2 (%) | Call
C1orf56 (chromosome 1 open reading frame 56) | 1 | -1.06 | -4.5 | 1.99 | inactive
C1orf56 (chromosome 1 open reading frame 56) | 2 | 0.13 | 3.88 | 5.91 | inactive
C1orf56 (chromosome 1 open reading frame 56) | 3 | 1.02 | 10.2 | 6.55 | inactive
UBALD2 (UBA like domain containing 2) | 1 | -0.475 | -0.374 | 3.5 | inactive
UBALD2 (UBA like domain containing 2) | 2 | 0.248 | 4.71 | 4.87 | inactive
UBALD2 (UBA like domain containing 2) | 3 | 0.396 | 5.76 | 5.02 | inactive
OS9 (OS9 endoplasmic reticulum lectin) | 1 | 2.39 | 19.8 | 12.7 | inactive
OS9 (OS9 endoplasmic reticulum lectin) | 2 | 0.311 | 5.15 | 6.26 | inactive
OS9 (OS9 endoplasmic reticulum lectin) | 3 | 0.327 | 5.26 | 5.14 | inactive
CNIH3 (cornichon family AMPA receptor auxiliary protein 3) | 1 | 0.705 | 7.93 | 6.49 | inactive
CNIH3 (cornichon family AMPA receptor auxiliary protein 3) | 2 | -1.11 | -4.83 | 1.42 | inactive
CNIH3 (cornichon family AMPA receptor auxiliary protein 3) | 3 | -0.0957 | 2.29 | 3.87 | inactive
ME2 (malic enzyme 2) | 1 | 0.113 | 3.76 | 6.81 | inactive
ME2 (malic enzyme 2) | 2 | -0.215 | 1.46 | 3.68 | inactive
ME2 (malic enzyme 2) | 3 | -0.315 | 0.749 | 5.77 | inactive
ABR (ABR activator of RhoGEF and GTPase) | 1 | 1.16 | 11.1 | 8.5 | inactive
ABR (ABR activator of RhoGEF and GTPase) | 2 | -1.29 | -6.11 | 2.9 | inactive
ABR (ABR activator of RhoGEF and GTPase) | 3 | -0.122 | 2.11 | 4.78 | inactive

The list goes on (4 carried over from the part before).
target | reagent | G2 robust z-score | G2 cells, % of GMNN control | raw share of cells in G2 (%) | Call
ME2 (malic enzyme 2) | 3 | -0.315 | 0.749 | 5.77 | inactive
ABR (ABR activator of RhoGEF and GTPase) | 1 | 1.16 | 11.1 | 8.5 | inactive
ABR (ABR activator of RhoGEF and GTPase) | 2 | -1.29 | -6.11 | 2.9 | inactive
ABR (ABR activator of RhoGEF and GTPase) | 3 | -0.122 | 2.11 | 4.78 | inactive
ZNF155 (zinc finger protein 155) | 1 | 1.66 | 14.7 | 12.5 | inactive
ZNF155 (zinc finger protein 155) | 2 | -0.211 | 1.48 | 3.96 | inactive
ZNF155 (zinc finger protein 155) | 3 | -0.994 | -4.03 | 2.19 | inactive
RBBP7 (RB binding protein 7, chromatin remodeling factor) | 1 | 0.234 | 4.61 | 6.94 | inactive
RBBP7 (RB binding protein 7, chromatin remodeling factor) | 2 | -0.0843 | 2.37 | 5.16 | inactive
RBBP7 (RB binding protein 7, chromatin remodeling factor) | 3 | 1.91 | 16.4 | 9.28 | inactive
RRP1B (ribosomal RNA processing 1B) | 1 | 2.57 | 21.1 | 11.1 | inactive
RRP1B (ribosomal RNA processing 1B) | 2 | 0.454 | 6.16 | 7.4 | inactive
RRP1B (ribosomal RNA processing 1B) | 3 | 0.184 | 4.26 | 5.89 | inactive
PLAC8L1 (PLAC8 like 1) | 1 | -0.805 | -2.7 | 2.64 | inactive
PLAC8L1 (PLAC8 like 1) | 2 | -0.271 | 1.06 | 3.32 | inactive
PLAC8L1 (PLAC8 like 1) | 3 | 0.338 | 5.34 | 4.45 | inactive
